Results taken from article PMC6642208.
Results are given in words; binding and its absence hold for the method and conditions named. In cells and extracts the contact can be indirect. A yes stands for co-enrichment or nearness to the bait. Other partners may have been found.

Assays:
gN-TurboID-3xHA [1] = biological target: T1, gN-TurboID-3xHA (UniProt Q40392); assay: proximity labelling; Group I, without p50: TurboID fusions in N. benthamiana leaves, 200 µM biotin and 30 µM 17-β-estradiol for 12 h, streptavidin beads, TMT labelling, 2D-LC-MS/MS; enriched >1.5 fold over Citrine-TurboID, q < 0.05
T1 sequence: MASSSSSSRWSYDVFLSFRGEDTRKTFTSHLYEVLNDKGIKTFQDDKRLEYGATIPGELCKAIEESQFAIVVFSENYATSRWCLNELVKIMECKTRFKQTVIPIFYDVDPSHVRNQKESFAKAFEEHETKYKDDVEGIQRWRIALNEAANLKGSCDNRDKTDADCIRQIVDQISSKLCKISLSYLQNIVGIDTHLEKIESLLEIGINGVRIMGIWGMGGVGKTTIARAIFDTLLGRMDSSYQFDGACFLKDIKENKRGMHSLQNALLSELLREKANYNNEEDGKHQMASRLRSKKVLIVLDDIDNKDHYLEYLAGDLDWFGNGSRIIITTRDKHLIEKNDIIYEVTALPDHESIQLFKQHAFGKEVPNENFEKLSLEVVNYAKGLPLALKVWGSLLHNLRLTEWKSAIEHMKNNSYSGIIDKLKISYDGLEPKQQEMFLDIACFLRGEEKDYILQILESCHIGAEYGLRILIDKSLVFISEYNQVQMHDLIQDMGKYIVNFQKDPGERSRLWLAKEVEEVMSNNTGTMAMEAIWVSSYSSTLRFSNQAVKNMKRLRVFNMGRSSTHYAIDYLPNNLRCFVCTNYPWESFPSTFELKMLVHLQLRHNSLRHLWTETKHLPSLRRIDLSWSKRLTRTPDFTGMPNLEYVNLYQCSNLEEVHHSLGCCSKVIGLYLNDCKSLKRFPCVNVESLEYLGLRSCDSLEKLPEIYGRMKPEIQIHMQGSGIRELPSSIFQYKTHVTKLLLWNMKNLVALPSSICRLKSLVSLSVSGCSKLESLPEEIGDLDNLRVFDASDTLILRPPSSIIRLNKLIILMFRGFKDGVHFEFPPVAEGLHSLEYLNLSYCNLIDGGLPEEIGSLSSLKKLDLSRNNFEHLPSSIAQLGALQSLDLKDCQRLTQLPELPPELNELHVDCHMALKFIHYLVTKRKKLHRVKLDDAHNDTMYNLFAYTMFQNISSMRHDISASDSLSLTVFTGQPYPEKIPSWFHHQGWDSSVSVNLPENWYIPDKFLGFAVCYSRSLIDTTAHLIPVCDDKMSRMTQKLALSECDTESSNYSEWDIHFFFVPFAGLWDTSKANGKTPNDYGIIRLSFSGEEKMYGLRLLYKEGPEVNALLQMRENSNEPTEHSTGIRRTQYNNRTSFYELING

gN-TurboID-3xHA [2] = biological target: T1, gN-TurboID-3xHA; assay: proximity labelling; same TurboID labelling and TMT LC-MS/MS; results told for 'the MS dataset' (Supplementary Data 1 and 2) without saying which group (with or without p50) or which bait

Row | binding (gN-TurboID-3xHA [1]) | binding (gN-TurboID-3xHA [2]) | Substance
1 | binds | – | NbUBR7 (endogenous)
2 | – | binds | NbAsp (endogenous)
3 | – | binds | NbTPL4 (endogenous)
4 | – | binds | NbMAP65 (endogenous)
